Results on one compound are retold here after article PMC8795745, “A GSH/CB Dual-Controlled Self-Assembled Nanomedicine for High-Efficacy Doxorubicin-Resistant Breast Cancer Therapy” (Frontiers in Pharmacology, 2022).

In the test the test system is MCF-7 cells. Kind of test: cells. The class given is cell-based. The note with it: Homo sapiens, MCF7; MTT, mean ± SD, n=3. How it is done: MTT assay was performed as described previously.^[6^] Briefly, the cells (5 × 10^3 cells/well) were seeded in 96-well culture plates (Coring) and incubated overnight. Then cells were exposed to various concentrations of cyclic-1a and incubated at 37 °C for 72 h. After that, MTT stock solution (0.5 mg/mL) was added into each well and cultured for additional 4 h. The MTT treated cells were […] with 150 μL of DMSO. The absorbance in each individual well was measured by using a microplate spectrophotometer at […] (SpectraMax M2e, Molecular Devices Inc. USA).

As usually defined, the IC50 is the concentration at which inhibition is half-maximal.

As to `COc1cccc2c1C(=O)c1c(O)c3c(c(O)c1C2=O)C[C@@](O)(C(=O)CO)C[C@@H]3O[C@H]1C[C@H](N)[C@H](O)[C@H](C)O1` [doxorubicin, Doxorubicin], the half-inhibitory concentration (IC50) came out at 5.07 ± 0.31 µM.
